{
  "source": "patent US20130072534A1",
  "about": "(LABORATORIOS DEL DR. ESTEVE, S.A., priority 2009, published 2013)",
  "origin": "cited, not measured here",
  "conditions": "cited from earlier work",
  "data": [
    {"smiles": "Cc1ccc(-c2cc(C(F)(F)F)nn2-c2ccc(S(N)(=O)=O)cc2)cc1", "note": "[celecoxib, 4-[5-(4-methylphenyl)-3-(trifluoromethyl)pyrazol-1-yl]benzenesulfonamide]", "values": [
      {"measurement": "solubility in water (in words)", "value": "only slightly soluble in water"}
    ]}
  ]
}
